Measurements as given in US11384071B2, “Inhibitors of mechanotransduction to treat pain and modulate touch perception” (Max-Delbrück-Centrum für Molekulare Medizin in der …, priority 2016, dated 2022).

Test system: Stoml3 mRNA
Assay: qPCR of Stoml3 transcript levels after inhibitor treatment
Type: cell-based, mouse
Details: 3 hours, 20 μM

## CCOC(=O)c1c(-c2ccccc2)oc2ccc(Oc3c([N+](=O)[O-])ncn3C)cc12 [OB-1, Ethyl 5-((1-methyl-4-nitro-1H-imidazol-5-yl)oxy)-2-phenylbenzofuran-3-carboxylate]
N2A cells
  levels of Stoml3 mRNA: did not reflect changes
Sensory neurons
  level of Stoml3 transcripts: did not lead to any changes
